Data published in patent US9272054B2, “Agents for the molecular imaging of serine-protease in human pathologies” (Institut National de la Sante et de la Recherche Medicale …, priority 2010, dated 2016).
Part of at least one peptide drawing is inferred or uncertain, most often the ends. Square brackets hold non-standard residues; d marks the D form. Peptide text beside a SMILES is read from it. * marks the point of attachment. DTPA = O=C(O)CN(CCN(CC(=O)O)CC(=O)O)CCN(CC(=O)O)CC(=O)*; CH2Cl = ClC*

Key:
[1] = tested on: endocarditic vegetations (left-sided endocarditis); test: Left-sided endocarditis in rats, SPECT and quantitative autoradiography of tracer uptake; type: in vivo, rat
[2] = tested on: endocarditic vegetations (right-sided endocarditis); test: Right-sided endocarditis in rats, SPECT; set-up: species or system rat; conditions: in vivo, 2 hours after radiotracer injection

CC(C)[C@@H](NC(=O)CNC(=O)CN(CCN(CCN(CC(=O)O)CC(=O)O)CC(=O)O)CC(=O)O)C(=O)N[C@@H](Cc1ccccc1)C(=O)N[C@@H](CCCCN)C(=O)CCl [99mTc-DTPA-G-dVFKcmk, metal not drawn] ({DTPA}-G[dV]FK-CH2Cl)
image in left ventricular endocarditis ([1]; confirmed by autoradiographies): localized positive image | Autoradiography, uptake ratio of relevant tissue to normal myocardium ([1]; left-sided endocarditis in rats, no pre-injection): 10.65±1.07 | uptake intensity quantified by autoradiography ([1]; left-sided endocarditis in rats, pre-injection of 1 mg non-labelled DOTA-G-dVFA-cmk, 3 animals): 6.43±1.85 | rats in which the vegetation uptake was detected on SPECT [2]: n/N
